# Earlier results, collected in patent US20090216187A1, “Method of Treatment of Vascular Diseases” (priority 2008, published 2009).
# At least one structure is not confirmed: it was looked up by name or label, or the drawing left a doubt.
# Conditions: cited from earlier work
compound,measurement,value
[188Re] [Rhenium-188],physical half-time,16.9 h
